Test results taken from the supplement of paper PMC10849652.
The other results are listed elsewhere or left out.

The chains behind the UniProt entries cited, without tags or fusion partners. Where a name states a change or a piece, a line headed by the entry shows the natural chain unless it says otherwise.
UniProt O75695: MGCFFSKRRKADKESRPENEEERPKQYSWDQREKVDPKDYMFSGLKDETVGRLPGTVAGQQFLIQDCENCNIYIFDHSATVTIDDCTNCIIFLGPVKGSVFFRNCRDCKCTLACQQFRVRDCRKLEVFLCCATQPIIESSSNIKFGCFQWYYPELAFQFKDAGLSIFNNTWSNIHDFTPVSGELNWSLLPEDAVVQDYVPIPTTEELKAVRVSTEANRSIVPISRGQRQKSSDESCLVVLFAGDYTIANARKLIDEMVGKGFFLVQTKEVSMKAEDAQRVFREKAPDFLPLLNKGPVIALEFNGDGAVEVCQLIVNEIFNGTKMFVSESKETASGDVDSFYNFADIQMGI
UniProt Q13546: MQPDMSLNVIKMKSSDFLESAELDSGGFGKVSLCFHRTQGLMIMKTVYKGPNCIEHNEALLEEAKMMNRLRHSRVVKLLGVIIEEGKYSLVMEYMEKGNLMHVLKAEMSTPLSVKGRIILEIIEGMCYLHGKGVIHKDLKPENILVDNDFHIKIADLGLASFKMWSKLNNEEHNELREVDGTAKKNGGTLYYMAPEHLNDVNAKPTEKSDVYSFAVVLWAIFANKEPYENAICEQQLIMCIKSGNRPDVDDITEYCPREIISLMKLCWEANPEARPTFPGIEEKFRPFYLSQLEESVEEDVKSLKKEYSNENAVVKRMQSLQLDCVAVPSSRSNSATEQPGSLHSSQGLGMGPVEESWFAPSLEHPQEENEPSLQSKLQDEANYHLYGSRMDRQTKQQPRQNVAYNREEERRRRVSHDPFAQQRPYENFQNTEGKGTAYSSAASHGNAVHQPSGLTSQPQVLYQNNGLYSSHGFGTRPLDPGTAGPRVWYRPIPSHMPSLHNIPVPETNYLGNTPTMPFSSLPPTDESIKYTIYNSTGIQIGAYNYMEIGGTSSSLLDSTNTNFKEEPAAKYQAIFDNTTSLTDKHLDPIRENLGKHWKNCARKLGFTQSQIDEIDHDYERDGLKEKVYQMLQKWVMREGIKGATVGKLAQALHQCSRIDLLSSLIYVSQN
UniProt O14730: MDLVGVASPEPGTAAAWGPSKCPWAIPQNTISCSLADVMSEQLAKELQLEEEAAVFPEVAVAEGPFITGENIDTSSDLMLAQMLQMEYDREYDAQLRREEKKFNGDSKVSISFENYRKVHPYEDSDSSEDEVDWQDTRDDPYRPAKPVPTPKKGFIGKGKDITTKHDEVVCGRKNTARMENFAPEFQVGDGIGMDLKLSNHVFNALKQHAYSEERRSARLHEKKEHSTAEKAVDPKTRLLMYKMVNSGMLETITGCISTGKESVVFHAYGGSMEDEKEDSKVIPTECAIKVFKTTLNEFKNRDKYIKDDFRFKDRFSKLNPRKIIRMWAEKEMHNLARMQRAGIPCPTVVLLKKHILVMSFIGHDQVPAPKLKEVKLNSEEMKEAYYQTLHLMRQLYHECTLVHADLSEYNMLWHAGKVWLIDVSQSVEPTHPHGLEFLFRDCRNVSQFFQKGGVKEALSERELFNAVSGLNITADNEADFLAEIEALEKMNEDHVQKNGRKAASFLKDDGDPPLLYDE
UniProt Q9BQY4: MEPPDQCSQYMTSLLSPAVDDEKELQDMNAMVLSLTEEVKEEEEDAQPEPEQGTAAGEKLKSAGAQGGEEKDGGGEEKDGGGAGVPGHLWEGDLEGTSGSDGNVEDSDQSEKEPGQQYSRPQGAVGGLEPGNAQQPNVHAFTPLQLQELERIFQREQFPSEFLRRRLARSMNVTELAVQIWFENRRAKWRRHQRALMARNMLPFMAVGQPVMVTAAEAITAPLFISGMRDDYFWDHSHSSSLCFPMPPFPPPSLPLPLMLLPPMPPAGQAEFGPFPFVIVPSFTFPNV
UniProt Q96A37: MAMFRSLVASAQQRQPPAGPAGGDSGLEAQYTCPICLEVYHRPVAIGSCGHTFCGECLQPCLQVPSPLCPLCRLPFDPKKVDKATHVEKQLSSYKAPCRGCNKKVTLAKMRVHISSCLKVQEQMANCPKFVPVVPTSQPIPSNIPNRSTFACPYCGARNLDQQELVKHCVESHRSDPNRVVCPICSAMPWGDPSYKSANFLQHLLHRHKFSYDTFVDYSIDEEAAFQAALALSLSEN
UniProt Q05823: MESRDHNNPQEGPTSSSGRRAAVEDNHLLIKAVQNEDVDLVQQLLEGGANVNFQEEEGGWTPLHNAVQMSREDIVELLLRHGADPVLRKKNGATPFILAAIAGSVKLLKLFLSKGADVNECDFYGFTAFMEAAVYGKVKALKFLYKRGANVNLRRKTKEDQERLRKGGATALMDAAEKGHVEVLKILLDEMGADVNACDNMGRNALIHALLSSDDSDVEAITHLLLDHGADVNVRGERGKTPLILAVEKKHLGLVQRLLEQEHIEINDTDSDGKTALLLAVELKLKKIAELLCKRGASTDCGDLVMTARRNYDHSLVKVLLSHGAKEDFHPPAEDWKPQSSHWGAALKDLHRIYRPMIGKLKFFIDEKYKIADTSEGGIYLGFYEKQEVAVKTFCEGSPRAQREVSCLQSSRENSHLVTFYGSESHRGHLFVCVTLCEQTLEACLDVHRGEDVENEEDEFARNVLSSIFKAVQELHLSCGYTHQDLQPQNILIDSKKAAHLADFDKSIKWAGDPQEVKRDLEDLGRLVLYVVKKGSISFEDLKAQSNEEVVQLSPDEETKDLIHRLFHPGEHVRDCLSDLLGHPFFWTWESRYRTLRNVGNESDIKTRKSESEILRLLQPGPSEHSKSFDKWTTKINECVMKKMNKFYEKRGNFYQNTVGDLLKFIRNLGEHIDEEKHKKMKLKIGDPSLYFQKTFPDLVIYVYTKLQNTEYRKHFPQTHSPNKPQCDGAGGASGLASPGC
UniProt O75150, whole entry, looked up: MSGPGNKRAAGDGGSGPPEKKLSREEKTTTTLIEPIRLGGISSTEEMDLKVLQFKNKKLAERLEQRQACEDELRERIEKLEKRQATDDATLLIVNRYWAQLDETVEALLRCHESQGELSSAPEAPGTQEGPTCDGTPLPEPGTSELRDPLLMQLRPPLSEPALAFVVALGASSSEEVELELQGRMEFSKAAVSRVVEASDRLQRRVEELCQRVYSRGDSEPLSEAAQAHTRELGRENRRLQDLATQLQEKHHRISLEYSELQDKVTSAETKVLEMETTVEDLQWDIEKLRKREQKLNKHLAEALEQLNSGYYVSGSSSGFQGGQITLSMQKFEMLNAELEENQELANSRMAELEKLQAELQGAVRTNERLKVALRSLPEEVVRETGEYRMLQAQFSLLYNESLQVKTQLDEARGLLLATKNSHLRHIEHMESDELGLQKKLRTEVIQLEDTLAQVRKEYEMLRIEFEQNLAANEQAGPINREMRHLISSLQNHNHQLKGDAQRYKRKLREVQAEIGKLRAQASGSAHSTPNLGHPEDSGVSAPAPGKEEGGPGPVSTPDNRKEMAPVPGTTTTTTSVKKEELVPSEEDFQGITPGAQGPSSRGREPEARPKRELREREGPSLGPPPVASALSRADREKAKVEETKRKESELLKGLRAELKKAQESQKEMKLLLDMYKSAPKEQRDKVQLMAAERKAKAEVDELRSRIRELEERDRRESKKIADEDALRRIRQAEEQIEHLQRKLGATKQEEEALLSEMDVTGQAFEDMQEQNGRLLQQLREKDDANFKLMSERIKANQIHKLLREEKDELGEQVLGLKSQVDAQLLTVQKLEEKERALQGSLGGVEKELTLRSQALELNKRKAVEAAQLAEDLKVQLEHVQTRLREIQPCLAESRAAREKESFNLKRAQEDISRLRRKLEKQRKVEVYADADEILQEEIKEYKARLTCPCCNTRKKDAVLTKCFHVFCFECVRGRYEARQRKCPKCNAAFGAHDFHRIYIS
UniProt P84095: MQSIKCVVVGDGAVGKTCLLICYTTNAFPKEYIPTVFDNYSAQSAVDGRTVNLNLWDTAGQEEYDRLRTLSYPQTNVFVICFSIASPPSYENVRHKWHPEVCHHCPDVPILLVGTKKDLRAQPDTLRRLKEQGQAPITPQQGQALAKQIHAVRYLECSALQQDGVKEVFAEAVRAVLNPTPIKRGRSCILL
UniProt Q96EP0: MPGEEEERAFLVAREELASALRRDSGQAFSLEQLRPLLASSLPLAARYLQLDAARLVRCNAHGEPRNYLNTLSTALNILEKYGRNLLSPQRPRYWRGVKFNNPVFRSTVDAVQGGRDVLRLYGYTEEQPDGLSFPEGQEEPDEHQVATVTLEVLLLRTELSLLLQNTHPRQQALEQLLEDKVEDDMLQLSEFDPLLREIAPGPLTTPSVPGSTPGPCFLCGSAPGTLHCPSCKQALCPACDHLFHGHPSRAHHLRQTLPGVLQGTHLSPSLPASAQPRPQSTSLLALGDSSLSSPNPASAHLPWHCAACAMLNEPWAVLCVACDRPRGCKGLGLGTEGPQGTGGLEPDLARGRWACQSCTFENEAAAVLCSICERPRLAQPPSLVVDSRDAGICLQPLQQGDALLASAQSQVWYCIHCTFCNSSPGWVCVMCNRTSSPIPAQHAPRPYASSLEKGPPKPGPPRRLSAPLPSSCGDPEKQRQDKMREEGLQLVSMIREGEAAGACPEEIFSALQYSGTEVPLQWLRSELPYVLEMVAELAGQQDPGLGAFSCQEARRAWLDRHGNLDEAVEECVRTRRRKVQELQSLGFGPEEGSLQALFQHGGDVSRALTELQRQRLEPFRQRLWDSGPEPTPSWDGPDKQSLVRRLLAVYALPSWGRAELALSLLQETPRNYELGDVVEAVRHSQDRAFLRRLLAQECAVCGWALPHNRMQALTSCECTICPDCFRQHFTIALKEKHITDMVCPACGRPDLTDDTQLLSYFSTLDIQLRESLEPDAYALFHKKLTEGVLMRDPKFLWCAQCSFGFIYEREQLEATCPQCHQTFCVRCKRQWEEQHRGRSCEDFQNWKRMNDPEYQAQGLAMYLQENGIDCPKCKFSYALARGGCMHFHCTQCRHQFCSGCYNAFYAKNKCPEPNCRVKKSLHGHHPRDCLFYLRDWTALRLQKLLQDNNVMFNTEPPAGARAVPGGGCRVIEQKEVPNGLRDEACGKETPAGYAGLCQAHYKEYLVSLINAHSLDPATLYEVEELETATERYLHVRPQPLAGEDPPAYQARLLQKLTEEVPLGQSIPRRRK
UniProt Q96K19: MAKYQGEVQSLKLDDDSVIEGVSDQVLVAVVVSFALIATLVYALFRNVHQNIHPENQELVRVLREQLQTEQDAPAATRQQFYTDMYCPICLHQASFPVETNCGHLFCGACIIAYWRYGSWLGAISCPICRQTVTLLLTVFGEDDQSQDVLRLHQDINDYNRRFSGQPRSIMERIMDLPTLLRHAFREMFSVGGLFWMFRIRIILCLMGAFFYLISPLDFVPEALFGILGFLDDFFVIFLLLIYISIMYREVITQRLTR
UniProt Q15287: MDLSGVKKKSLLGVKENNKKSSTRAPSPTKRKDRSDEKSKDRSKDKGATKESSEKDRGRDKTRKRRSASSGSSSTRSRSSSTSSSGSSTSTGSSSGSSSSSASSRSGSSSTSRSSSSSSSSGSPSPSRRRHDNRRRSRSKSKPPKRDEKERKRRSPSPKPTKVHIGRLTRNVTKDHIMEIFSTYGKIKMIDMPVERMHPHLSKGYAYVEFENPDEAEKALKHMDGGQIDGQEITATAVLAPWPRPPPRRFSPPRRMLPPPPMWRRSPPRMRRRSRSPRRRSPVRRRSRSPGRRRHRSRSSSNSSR
UniProt Q86XS8: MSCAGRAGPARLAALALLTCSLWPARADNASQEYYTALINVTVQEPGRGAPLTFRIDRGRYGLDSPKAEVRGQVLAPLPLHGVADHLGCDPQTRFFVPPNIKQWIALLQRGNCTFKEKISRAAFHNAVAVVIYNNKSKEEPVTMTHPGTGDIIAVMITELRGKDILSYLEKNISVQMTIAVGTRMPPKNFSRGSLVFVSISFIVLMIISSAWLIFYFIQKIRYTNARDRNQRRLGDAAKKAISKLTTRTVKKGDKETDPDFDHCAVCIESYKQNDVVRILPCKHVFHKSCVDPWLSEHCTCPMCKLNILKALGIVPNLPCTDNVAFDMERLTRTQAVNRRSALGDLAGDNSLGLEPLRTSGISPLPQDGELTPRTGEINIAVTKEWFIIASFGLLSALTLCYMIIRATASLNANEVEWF
UniProt P15927: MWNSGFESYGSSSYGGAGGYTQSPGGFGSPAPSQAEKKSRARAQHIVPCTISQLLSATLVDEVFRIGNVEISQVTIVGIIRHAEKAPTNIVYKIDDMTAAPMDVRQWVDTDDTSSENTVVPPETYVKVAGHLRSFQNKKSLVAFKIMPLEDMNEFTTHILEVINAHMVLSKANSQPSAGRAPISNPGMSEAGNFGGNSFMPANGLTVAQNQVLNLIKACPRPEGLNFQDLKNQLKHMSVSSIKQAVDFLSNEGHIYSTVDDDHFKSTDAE

Tests used:
Assay in all cases: log2 fold change, soluble protein after heating vs DMSO (PISA); higher = thermal stabilisation; K562 lysate, 10 uM; active = over 0.2 and 3.5 SD of the protein, either way, in both replicates (recomputed)
[1] = compound: C1=CC=C(C=C1)[C@H](COC2=CC3=C(C=C2)NC(=O)N3)NC(=O)C4=CC=CN(C4=O)CC5=CC(=C(C=C5)F)F
Method in brief: (§1)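 Values give the log-two fold change in thermal stability against solvent controls, from duplicates. Crude K562 extract at 1 mg/mL protein, made by dounce homogenisation in PBS pH 7.4 with 1 mM MgCl2, was treated with 10 μM compound for 30 min. After 3 min heating across 48°C-58°C, aliquots were pooled, adjusted to 0.5% NP-40 at 4°C and centrifuged at 21,000xg for 90 min. The supernatant was measured by TMTpro 16plex LC-MS/MS with channel sums equalised.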

[2] = compound: CC1=C(SC2=C1C(=N[C@H](C3=NN=C(N32)C)CC(=O)N)C4=CC=C(C=C4)Cl)C
Method in brief: as §1

[3] = compound: CC1=C2C(=CC=C1)N=C(N(C2=O)C3=CC=CC=C3C)CN4C=NC5=C(N=CN=C54)N
Method in brief: as §1

[4] = compound: Cc1sc2c(c1C)C(c1ccc(Cl)cc1)=N[C@@H](CC(=O)OC(C)(C)C)c1nnc(C)n1-2
Method in brief: as §1

[5] = compound: c1ccc([C@@H]2C[C@H]2NC2CCNCC2)cc1
Method in brief: as §1

Measured: log2 fold change

RP2 (UniProt O75695)
inactive: [1] -0.002 | [2] -0.007 | [3] -0.093 | [4] -0.02 | [5] 0.079

RPL18 (UniProt Q07020)
inactive: [1] 0.049 | [2] -0.004 | [3] 0.016 | [4] -0.013 | [5] -0.015

RPL23A (UniProt P62750)
inactive: [1] -0.001 | [2] 0.018 | [3] -0.035 | [4] 0.032 | [5] 0.077

RIPK1 (UniProt Q13546)
inactive: [1] -0.019 | [2] -0.015 | [3] -0.009 | [4] -0.04 | [5] -0.021

RPGR (UniProt Q92834)
inactive: [1] -0.116 | [2] -0.146

RPE (UniProt Q96AT9)
inactive: [1] 0.037 | [2] 0.241 | [3] 0.07 | [4] 0.018 | [5] -0.289

RLIM (UniProt Q9NVW2)
inactive: [1] 0.049 | [2] 0.135

RPL15, A0A2R8Y738
inactive: [1] -0.211 | [2] 0.026

RHOT1 isoform 3 (UniProt Q8IXI2)
inactive: [1] -0.031 | [2] -0.061 | [3] -0.029 | [4] 0.029 | [5] -0.019

RIOK3 (UniProt O14730)
inactive: [1] 0.002 | [2] 0.052 | [3] 0.053 | [4] -0.007 | [5] 0.016

RMDN3 (UniProt Q96TC7)
inactive: [1] -0.011 | [2] -0.017 | [3] 0.075 | [4] -0.114 | [5] -0.035

RPL27A (UniProt P46776)
inactive: [1] 0.033 | [2] -0.025 | [3] -0.004 | [4] -0.068 | [5] -0.029

RPL34 (UniProt P49207)
inactive: [1] -0.003 | [2] 0.033 | [3] -0.018 | [4] -0.022 | [5] -0.039

RPL23 (UniProt P62829)
inactive: [1] 0.008 | [2] -0.001 | [3] 0.02 | [4] 0.008 | [5] 0.011

RPL26 (UniProt P61254)
inactive: [1] 0.147 | [2] -0.189 | [3] 0.019 | [4] 0.236 | [5] 0.167

RICTOR isoform 3 (UniProt Q6R327)
inactive: [1] 0.097 | [2] -0.296 | [3] 0.391 | [4] -0.104 | [5] 0.018

RHOXF2 (UniProt Q9BQY4)
inactive: [1] -0.038 | [2] -0.023 | [3] 0.056 | [4] 0.009 | [5] -0.069

RPA1 (UniProt P27694)
inactive: [1] -0.015 | [2] 0.012 | [3] 0.005 | [4] -0.02 | [5] 0.054

RNF166 (UniProt Q96A37)
inactive: [1] 0.105 | [2] -0.157 | [3] -0.005 | [4] 0.08 | [5] -0.148

RPL19 (UniProt P84098)
inactive: [1] 0.04 | [2] -0.022 | [3] -0.026 | [4] 0.052 | [5] 0.019

RHEB (UniProt Q15382)
inactive: [1] -0.029 | [2] 0.069 | [3] -0.008 | [4] -0.025 | [5] -0.003

RNASEL (UniProt Q05823)
inactive: [1] 0.047 | [2] -0.041 | [3] 0.068 | [4] -0.004 | [5] 0.046

RIC8B isoform 1 (UniProt Q9NVN3)
inactive: [1] -0.029 | [2] -0.011 | [3] -0.054 | [4] -0.146 | [5] 0.026

RNF40 (UniProt O75150)
inactive: [1] 0 | [2] -0.02 | [3] 0.007 | [4] -0.003 | [5] 0.041

RIF1 (UniProt Q5UIP0)
inactive: [1] -0.004 | [2] 0.018 | [3] 0.012 | [4] -0.005 | [5] 0.003

RNPEP (UniProt Q9H4A4)
inactive: [1] 0.026 | [2] -0.023 | [3] -0.002 | [4] 0.031 | [5] 0.003

RHOG (UniProt P84095)
inactive: [1] -0.007 | [2] 0.02 | [3] 0.004 | [4] 0.015 | [5] -0.015

RILP (UniProt Q96NA2)
inactive: [1] 0.029 | [2] -0.004 | [3] -0.004 | [4] 0 | [5] 0.007

RPL11 (UniProt P62913)
inactive: [1] 0.013 | [2] -0.04 | [3] 0.001 | [4] -0.055 | [5] -0.007

2 consecutive entries from above, quoted:
RHOG (UniProt P84095)
inactive: [1] -0.007 | [2] 0.02 | [3] 0.004 | [4] 0.015 | [5] -0.015

RILP (UniProt Q96NA2)
inactive: [1] 0.029 | [2] -0.004 | [3] -0.004 | [4] 0 | [5] 0.007

(next part)

RNF31 (UniProt Q96EP0)
inactive: [1] 0.056 | [2] -0.05 | [3] 0.003 | [4] 0.039 | [5] 0.019

RPF1 (UniProt Q9H9Y2)
inactive: [1] 0.089 | [2] -0.055

RPL27 (UniProt P61353)
inactive: [1] 0.034 | [2] 0.031 | [3] 0.003 | [4] 0.008 | [5] 0.101

RILPL1 (UniProt Q5EBL4)
inactive: [1] 0.01 | [2] 0.038 | [3] 0.008 | [4] 0.004 | [5] 0.004

ROR2 (UniProt Q01974)
inactive: [1] -0.003 | [2] 0.023 | [3] 0.005 | [4] 0.007 | [5] -0.008

RNF168 (UniProt Q8IYW5)
inactive: [1] -0.008 | [2] -0.052 | [3] 0.017 | [4] 0.061 | [5] -0.068

RPL3 (UniProt P39023)
inactive: [1] -0.02 | [2] -0.001 | [3] -0.018 | [4] 0.032 | [5] 0.057

RNF126 (UniProt Q9BV68)
inactive: [1] -0.015 | [2] -0.026 | [3] -0.06 | [4] -0.054 | [5] 0.148

RNF187 (UniProt Q5TA31)
inactive: [1] -0.015 | [2] -0.023 | [3] 0.015 | [4] -0.083 | [5] 0

RNF170 (UniProt Q96K19)
inactive: [1] -0.097 | [2] -0.115 | [3] 0.149 | [4] 0.285 | [5] -0.026

RNF25 (UniProt Q96BH1)
inactive: [1] 0.012 | [2] 0.014 | [3] 0.036 | [4] 0.005 | [5] -0.021

RIPK2 (UniProt O43353)
inactive: [1] 0.031 | [2] -0.012 | [3] 0.045 | [4] 0.001 | [5] 0.023

ROCK2 (UniProt O75116)
inactive: [1] -0.009 | [2] 0 | [3] 0.005 | [4] 0 | [5] -0.072

RNPS1 (UniProt Q15287)
inactive: [1] 0.014 | [2] -0.003 | [3] 0.06 | [4] 0.036 | [5] 0.016

RNF130 (UniProt Q86XS8)
inactive: [1] -0.042 | [2] -0.014 | [3] -0.029 | [4] 0.103 | [5] 0.076

RPL32 (UniProt P62910)
inactive: [1] 0.009 | [2] 0.001 | [3] -0.026 | [4] 0.036 | [5] 0.029

RNGTT (UniProt O60942)
inactive: [1] -0.299 | [2] -0.054 | [3] 0.042 | [4] -0.027 | [5] 0.009

RNF123 (UniProt Q5XPI4)
inactive: [1] -0.019 | [2] -0.024 | [3] 0.019 | [4] 0.005 | [5] 0.047

RPL12 (UniProt P30050)
inactive: [1] 0.007 | [2] -0.013 | [3] -0.025 | [4] -0.031 | [5] -0.045

RNASEH2B (UniProt Q5TBB1)
inactive: [1] 0.056 | [2] -0.008 | [3] -0.032 | [4] 0.038 | [5] 0.049

RPA2 isoform 3 (UniProt P15927)
inactive: [1] -0.008 | [2] 0.046 | [3] -0.021 | [4] -0.075 | [5] -0.086

RPL18A (UniProt Q02543)
inactive: [1] 0.065 | [2] -0.007 | [3] 0.023 | [4] -0.017 | [5] 0.002

16 consecutive records out of the list so far, quoted:
RPGR (UniProt Q92834)
inactive: [1] -0.116 | [2] -0.146

RPE (UniProt Q96AT9)
inactive: [1] 0.037 | [2] 0.241 | [3] 0.07 | [4] 0.018 | [5] -0.289

RLIM (UniProt Q9NVW2)
inactive: [1] 0.049 | [2] 0.135

RPL15, A0A2R8Y738
inactive: [1] -0.211 | [2] 0.026

RHOT1 isoform 3 (UniProt Q8IXI2)
inactive: [1] -0.031 | [2] -0.061 | [3] -0.029 | [4] 0.029 | [5] -0.019

RIOK3 (UniProt O14730)
inactive: [1] 0.002 | [2] 0.052 | [3] 0.053 | [4] -0.007 | [5] 0.016

RMDN3 (UniProt Q96TC7)
inactive: [1] -0.011 | [2] -0.017 | [3] 0.075 | [4] -0.114 | [5] -0.035

RPL27A (UniProt P46776)
inactive: [1] 0.033 | [2] -0.025 | [3] -0.004 | [4] -0.068 | [5] -0.029

RPL34 (UniProt P49207)
inactive: [1] -0.003 | [2] 0.033 | [3] -0.018 | [4] -0.022 | [5] -0.039

RPL23 (UniProt P62829)
inactive: [1] 0.008 | [2] -0.001 | [3] 0.02 | [4] 0.008 | [5] 0.011

RPL26 (UniProt P61254)
inactive: [1] 0.147 | [2] -0.189 | [3] 0.019 | [4] 0.236 | [5] 0.167

RICTOR isoform 3 (UniProt Q6R327)
inactive: [1] 0.097 | [2] -0.296 | [3] 0.391 | [4] -0.104 | [5] 0.018

RHOXF2 (UniProt Q9BQY4)
inactive: [1] -0.038 | [2] -0.023 | [3] 0.056 | [4] 0.009 | [5] -0.069

RPA1 (UniProt P27694)
inactive: [1] -0.015 | [2] 0.012 | [3] 0.005 | [4] -0.02 | [5] 0.054

RNF166 (UniProt Q96A37)
inactive: [1] 0.105 | [2] -0.157 | [3] -0.005 | [4] 0.08 | [5] -0.148

RPL19 (UniProt P84098)
inactive: [1] 0.04 | [2] -0.022 | [3] -0.026 | [4] 0.052 | [5] 0.019

Continuation.

RIPOR1 isoform 4 (UniProt Q6ZS17)
inactive: [1] -0.002 | [2] -0.028 | [3] 0.002 | [4] 0.092 | [5] 0.072

RPL10 (UniProt P27635)
inactive: [1] -0.019 | [2] -0.005 | [3] -0.011 | [4] 0.027 | [5] 0.094

RPL26L1 (UniProt Q9UNX3)
inactive: [1] 0.05 | [2] -0.015 | [3] -0.028 | [4] 0.05 | [5] 0.084

RHOB (UniProt P62745)
inactive: [1] -0.013 | [2] -0.067 | [3] 0.008 | [4] 0.011 | [5] -0.002
